Data as given in PubChem BioAssay AID1259275 (Sanger Institute, 2017).

Assay: 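Kinase and colorectal cancer genes needed for cancer cell survival, with or without drugs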 (primary screen)
System: COLO320HSR human colorectal cancer cells
Reagents: siRNA pool against human genes
Conditions: anchor drug added one day after transfection: BYL719 at 1 µM, cetuximab at 5 µg/ml or trametinib at 10 nM; DMSO as vehicle arm
Read-out: 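Replicate-mean viability versus non-targeting pool control, robust z-score without drug, and per-drug synergy scores for BYL719 at 1 µM, cetuximab at 5 µg/ml and trametinib at 10 nM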
Scale: robust z-score, siRNA alone: higher = more viable cells; strongly negative means essential; viability, knock-down alone (DMSO): higher = more viable cells; synergy score with BYL719 and synergy score with cetuximab and synergy score with trametinib: higher = stronger combined killing with drug
Rule for the call: 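Essential means the knock-down by itself gives a robust z-score lower than -3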
Calls: active = essential (siRNA alone); inactive = no change (siRNA alone)
This is an unselected part of 794 deposited reagents. 13 of them (1.6%) count as active. 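Calls mark knock-downs lethal by themselves, not drug synergy; drugs went in a day after transfection, with DMSO as vehicle.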 Viability is capped at 1. The record does not give: the amount of reagent, the time to read-out.

gene knocked down | robust z-score, siRNA alone | viability, knock-down alone (DMSO) (fraction of control) | synergy score with BYL719 | synergy score with cetuximab | synergy score with trametinib | activity call
MGA | -1.25 | 0.822 | -0.159 | 0.0841 | 0.0161 | inactive
RPS6KA3 | 0.726 | 1 | -0.118 | -0.0893 | 0.0194 | inactive
FCSK | 0.224 | 0.955 | -0.113 | -0.131 | -0.0599 | inactive
BRAF | 0.164 | 0.949 | -0.11 | -0.0406 | -0.025 | inactive
IPPK | -0.655 | 0.875 | -0.0883 | 0.0504 | -0.0584 | inactive
KHK | 0.726 | 1 | -0.11 | 0.0816 | 0.00307 | inactive
PFKM | 0.329 | 0.964 | -0.176 | -0.122 | -0.00793 | inactive
LIMK2 | 0.726 | 1 | -0.103 | -0.0893 | -0.0259 | inactive
PFKFB3 | 0.726 | 1 | 0.000839 | 0.032 | 0.084 | inactive
PHKA2 | -1.14 | 0.831 | -0.118 | -0.0959 | -0.172 | inactive
STK35 | 0.726 | 1 | -0.113 | -0.0893 | -0.0259 | inactive
MAP3K2 | 0.726 | 1 | -0.296 | -0.0893 | -0.0259 | inactive
SOS2 | 0.59 | 0.988 | -0.0279 | -0.101 | 0.0417 | inactive
PGK2 | 0.0651 | 0.94 | -0.145 | -0.144 | -0.0841 | inactive
RIOK3 | -0.524 | 0.887 | -0.0439 | -0.125 | -0.00664 | inactive
SIK3 | 0.726 | 1 | -0.0777 | -0.0893 | -0.0257 | inactive
AK3 | 0.726 | 1 | 0.00889 | -0.0893 | -0.0259 | inactive
INSRR | -0.0427 | 0.931 | -0.151 | -0.14 | -0.0308 | inactive
FXN | 0.628 | 0.991 | -0.134 | -0.0824 | -0.00292 | inactive
MAP4K3 | -0.986 | 0.845 | -0.197 | -0.11 | -0.0964 | inactive
NUAK1 | -0.312 | 0.906 | -0.136 | -0.175 | -0.0657 | inactive
SPHK1 | -0.489 | 0.89 | -0.159 | -0.16 | -0.124 | inactive
TGFBR1 | 0.726 | 1 | -0.259 | -0.0893 | 0.0463 | inactive
PRKCD | 0.726 | 1 | 0.0536 | 0.0644 | 0.0431 | inactive
BMPR1B | 0.726 | 1 | -0.205 | -0.0893 | -0.0259 | inactive
MAP2K4 | 0.513 | 0.981 | -0.0331 | -0.0366 | -0.0446 | inactive
PDXK | -0.0155 | 0.933 | -0.192 | -0.148 | -0.0911 | inactive
PRKY | -0.51 | 0.888 | -0.162 | -0.191 | -0.0224 | inactive
AURKA | -2.6 | 0.699 | -0.0609 | -0.0661 | 0.00415 | inactive
CAMKV | -1.22 | 0.824 | -0.145 | -0.223 | -0.161 | inactive
PIK3R1 | 0.544 | 0.984 | -0.0931 | 0.0171 | 0.000467 | inactive
CHUK | 0.726 | 1 | -0.227 | -0.0893 | -0.0259 | inactive
POMK | 0.726 | 1 | -0.137 | -0.0823 | -0.0166 | inactive
VRK3 | 0.726 | 1 | -0.249 | -0.0893 | -0.0259 | inactive

Sorted by “synergy score with cetuximab” (low to high): some entries from above
gene knocked down | robust z-score, siRNA alone | viability, knock-down alone (DMSO) (fraction of control) | synergy score with BYL719 | synergy score with cetuximab | synergy score with trametinib | activity call
PFKM | 0.329 | 0.964 | -0.176 | -0.122 | -0.00793 | inactive
PHKA2 | -1.14 | 0.831 | -0.118 | -0.0959 | -0.172 | inactive
LIMK2 | 0.726 | 1 | -0.103 | -0.0893 | -0.0259 | inactive
STK35 | 0.726 | 1 | -0.113 | -0.0893 | -0.0259 | inactive
PFKFB3 | 0.726 | 1 | 0.000839 | 0.032 | 0.084 | inactive
